Results from publication PMC4326827, “Biophysical Studies on Interactions and Assembly of Full-size E3 Ubiquitin Ligase” (The Journal of Biological Chemistry, 2014).
These are yes or no findings as the source states them, for the method shown. In cells and extracts the contact can be indirect. These calls come from enrichment with a bait or labelling near it, and not all partners need be listed. No binding means not detected with the bait.

Target: T1, Biotinylated non-phosphorylated GHR_Y595 peptide on Neutravidin beads
T1 sequence (peptide, biotin-aminohexanoic acid on the N-terminus; C-terminal amide): PVPDYTSIHIV
Experiment: affinity purification with mass spectrometry; biotinylated GHR peptides (pY595 or Y595) on Neutravidin beads incubated with human K562 total cell lysate, 2 h at 4 °C; competition with 100 μM non-biotinylated GHR_pY595 in the lysate; tandem mass tag labelling and MS; only the target purified

Cul5 (cullin 5), endogenous (from UniProt Q93034 1-780)
binding: no binding

Rbx2 (RING box protein 2), endogenous (from UniProt Q9UBF6 1-113)
binding: no binding
